Results reported in patent US20250188033A1, “INHIBITOR OF REPLICATION PROTEIN A1 OF TRYPANOSOMA BRUCEI AND METHOD OF USE […]” (Research Foundation of the City University of New York, published 2025).
At least one structure is not confirmed: it was looked up by name or label, or the drawing left a doubt.

Protein sequences, listed by entry. Tags and fused reporters are not part of them. Residues count along the entry.
UniProt P27694, 181-422 limits assumed: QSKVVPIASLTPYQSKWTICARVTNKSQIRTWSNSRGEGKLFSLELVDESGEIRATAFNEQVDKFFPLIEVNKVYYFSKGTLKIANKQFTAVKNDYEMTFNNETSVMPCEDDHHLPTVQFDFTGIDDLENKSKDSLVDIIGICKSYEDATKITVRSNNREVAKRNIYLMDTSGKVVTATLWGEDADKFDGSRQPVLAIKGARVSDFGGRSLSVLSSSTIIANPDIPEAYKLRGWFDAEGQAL
UniProt P27694, whole entry: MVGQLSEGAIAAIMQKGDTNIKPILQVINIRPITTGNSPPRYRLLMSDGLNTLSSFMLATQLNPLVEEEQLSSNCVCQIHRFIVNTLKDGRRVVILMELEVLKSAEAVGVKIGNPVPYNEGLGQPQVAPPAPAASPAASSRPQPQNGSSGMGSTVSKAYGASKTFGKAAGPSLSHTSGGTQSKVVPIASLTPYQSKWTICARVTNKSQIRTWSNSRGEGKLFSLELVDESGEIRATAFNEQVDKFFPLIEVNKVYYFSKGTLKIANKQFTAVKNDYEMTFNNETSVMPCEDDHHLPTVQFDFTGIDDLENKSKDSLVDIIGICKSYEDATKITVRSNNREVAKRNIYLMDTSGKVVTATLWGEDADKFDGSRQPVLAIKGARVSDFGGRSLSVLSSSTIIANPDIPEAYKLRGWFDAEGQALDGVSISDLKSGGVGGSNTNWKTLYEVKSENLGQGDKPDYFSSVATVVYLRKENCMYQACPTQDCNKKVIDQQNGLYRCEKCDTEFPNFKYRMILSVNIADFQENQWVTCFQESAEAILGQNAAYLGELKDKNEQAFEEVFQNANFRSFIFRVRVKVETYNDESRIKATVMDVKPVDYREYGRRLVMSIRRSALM
TbRPA1 DBD-AB (Trypanosoma brucei brucei, UniProt Q384B5), UniProt Q384B5, entry or part of it: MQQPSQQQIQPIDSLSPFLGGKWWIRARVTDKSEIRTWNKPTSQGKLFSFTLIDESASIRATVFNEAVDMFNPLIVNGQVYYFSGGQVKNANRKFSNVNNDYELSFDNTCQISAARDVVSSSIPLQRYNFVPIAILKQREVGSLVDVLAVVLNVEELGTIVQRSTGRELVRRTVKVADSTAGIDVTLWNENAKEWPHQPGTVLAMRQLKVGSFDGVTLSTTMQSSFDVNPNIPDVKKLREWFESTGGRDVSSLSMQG
TbRPA complex (Trypanosoma brucei brucei, UniProt Q384B5), UniProt Q384B5, entry or part of it: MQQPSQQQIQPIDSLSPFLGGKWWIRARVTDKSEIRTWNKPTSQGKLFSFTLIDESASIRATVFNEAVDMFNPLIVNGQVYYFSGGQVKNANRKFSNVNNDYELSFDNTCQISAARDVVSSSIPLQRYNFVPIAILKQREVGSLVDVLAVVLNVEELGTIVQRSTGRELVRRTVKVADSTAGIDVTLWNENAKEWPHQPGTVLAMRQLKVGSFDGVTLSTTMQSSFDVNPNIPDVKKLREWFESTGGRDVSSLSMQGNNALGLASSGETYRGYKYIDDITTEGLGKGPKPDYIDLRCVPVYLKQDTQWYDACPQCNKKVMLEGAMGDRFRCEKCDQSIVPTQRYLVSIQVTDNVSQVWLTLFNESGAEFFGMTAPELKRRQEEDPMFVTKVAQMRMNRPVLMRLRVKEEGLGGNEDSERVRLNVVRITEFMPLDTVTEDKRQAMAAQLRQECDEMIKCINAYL
UniProt Q4DXC9, 1-247 T105S: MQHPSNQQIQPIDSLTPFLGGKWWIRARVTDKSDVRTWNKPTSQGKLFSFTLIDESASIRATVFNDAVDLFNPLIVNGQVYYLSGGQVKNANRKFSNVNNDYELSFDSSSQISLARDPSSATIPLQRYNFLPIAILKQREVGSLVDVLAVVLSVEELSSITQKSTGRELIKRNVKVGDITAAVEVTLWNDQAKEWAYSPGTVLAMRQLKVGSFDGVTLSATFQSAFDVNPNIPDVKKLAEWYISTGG

Legend:
Trypanosoma brucei = test: ALAMARBLUE cell viability / growth assay of T. brucei cells; assay type: cell-based; conditions: 50 μM, monitored for 72 hours, cell counting and ALAMARBLUE
Procedure: To determine cell growth rate, WT and two TbRPA1 RNAi KD strains (KD1 and KD2) were seeded at a density of 1×10^5 cells/ml and cultured with or without tetracycline for the induction of RNAi. Cells were counted every 12 hours for 2 days. To determine the viability of TbRPA1-depleted cells, ALAMARBLUE® assay (Thermo Fisher, an established colorimetric technique that detects metabolically active cells) was used. Cells from each time point were incubated with ALAMARBLUE® dye for 4-6 hours and percentage of live cells was determined by measuring resorufin converted from resazurin by reducing environment of live cells. Synergy H1 microplate reader (BioTek) was used with 560/590 nm (excitation/emission) filter settings and Relative Fluorescence Unit (RFU) values were obtained. The percentage of viable cells were calculated from the RFU values.
The initial assessment of JC-229's inhibitory effect on T. brucei cell growth was performed at 50 μM concentration. […] JC-229-treated culture and control cultures were analyzed with the ALAMARBLUE® dye as described above.
To obtain the EC50 value of JC-229, T. brucei cells were seeded at 1×10^3 cells/ml density in 180 μl in a 96-well culture plate in triplicate. These cells were incubated for 72 hours with increasing concentrations of JC-229, (0.5 μM to 50 μM) and cell viability was determined using the ALAMARBLUE® dye as described above. […]

HsRPA1 DBD-AB [1] = target: T1, HsRPA1 DBD-AB (Homo sapiens, UniProt P27694); test: MST inhibition of ssDNA (5'Cy5-dT32) binding
T1 construct: generated by PCR-amplifying the DBD-AB domain and cloning into a pET28a vector; 6xHis; made in house; host or cells: E. coli BL21, pET28a (pSR15)

HsRPA complex [2] = target: T2, HsRPA complex (Homo sapiens, UniProt P27694); test: MST inhibition of ssDNA (5'Cy5-dT32) binding
T2 construct: 6xHis + thrombin cleavage site (N); made in house; host or cells: E. coli BL21; pSR18i derived from p11d-tRPA(123) (AddGene)

TbRPA1 DBD-AB = TbRPA1 DBD-AB (Trypanosoma brucei brucei, UniProt Q384B5); test: EMSA inhibition of ssDNA (5'IRDye800-dT32) binding; conditions: 0.625-80 μM compound
HsRPA1 DBD-AB [3] = target: T1, HsRPA1 DBD-AB; test: EMSA inhibition of ssDNA (5'IRDye800-dT32) binding; conditions: highest concentration 80 μM
TbRPA complex = TbRPA complex (Trypanosoma brucei brucei, UniProt Q384B5); test: EMSA inhibition of ssDNA (5'IRDye800-dT32) binding
HsRPA complex [4] = target: T2, HsRPA complex; test: EMSA inhibition of ssDNA (5'IRDye800-dT32) binding
TcRPA1 DBD-AB = test: EMSA and MST inhibition of ssDNA binding; parameters: species or system T. cruzi
LmexRPA1 DBD-AB = test: EMSA and MST inhibition of ssDNA binding; parameters: species or system L. mexicana
[5] = tested on: TbRPA1 DBD-AB S105T mutant; test: EMSA and MST inhibition of ssDNA binding; parameters: species or system Trypanosoma brucei
[6] = target: T3, TcRPA1 DBD-AB T105S mutant (Trypanosoma cruzi, UniProt Q4DXC9, T105S); test: EMSA and MST inhibition of ssDNA binding; parameters: species or system T. cruzi
T3 sequence (Q4DXC9 1-247 T105S): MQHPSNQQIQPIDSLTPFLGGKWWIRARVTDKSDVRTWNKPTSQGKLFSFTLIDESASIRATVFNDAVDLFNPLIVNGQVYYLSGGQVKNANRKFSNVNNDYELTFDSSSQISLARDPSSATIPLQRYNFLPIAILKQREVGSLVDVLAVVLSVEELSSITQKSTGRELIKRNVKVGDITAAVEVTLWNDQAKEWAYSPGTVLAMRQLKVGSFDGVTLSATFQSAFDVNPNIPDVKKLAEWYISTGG

T. brucei cells [7] = test: DNA synthesis assay by BrdU pulse labeling; assay type: cell-based, Trypanosoma brucei; conditions: 10 μM, after 8 hours of treatment
T. brucei cells [8] = test: Immunoblotting of TbRPA1, γH2A and VSG3 protein levels; assay type: cell-based, Trypanosoma brucei; conditions: 10 μM, up to 48 hours
Procedure: Without wishing to be bound to any particular theory, if JC-229 indeed binds and inhibits the functions of TbRPA1, as predicted from the structural model, JC-229-treated trypanosome cells should show similar phenotypes to TbRPA1-depleted cells without affecting TbRPA1 protein levels. Wild-type T. brucei cells was treated with 10 μM JC-229 for 48 hours and the cell-cycle profile and efficiency of DNA synthesis was monitored. TbRPA1, γH2A, VSG3, and Tubulin protein levels were also monitored (FIG. 3A, FIG. 3B, FIG. 3C and FIG. 3D).
Cells were harvested at indicated time points and suspended in Laemmli buffer (Bio-Rad) at 0.25 million cells per μl. Denatured proteins from whole cells were separated on a 4-20% gradient SDS-PAGE gel (BioRAD) and transferred to nitrocellulose membrane (GE Healthcare). The membranes were probed with polyclonal antibodies against TbRPA1 (a gift from Bibo Li laboratory) or γH2A (generated by ABclonal for this study), or monoclonal mouse antibodies against VSG3 (Antibody and Bioresource Core facility, MSKCC) or tubulin (Sigma) in 1× PBS with 0.1% Tween 20 and 1% milk (BioRAD) at 4° C. overnight. The membranes were then incubated with secondary antibodies conjugated with Horseradish Peroxidase (HRP) (GE healthcare) for the detection of corresponding proteins using chemiluminescence (Hyglo from Denville Scientific, ChemiDoc Imaging System from BioRAD).

T. brucei cells [9] = test: Microscopic analysis of treated cells (DAPI); assay type: cell-based, Trypanosoma brucei; conditions: 10 μM, 16-48 hours

Cc1ccc(C(=O)Nc2ccc(Cl)c(Cl)c2)cc1S(=O)(=O)Nc1ccc(Cl)c(Cl)c1 [JC-229, N-(3,4-dichlorophenyl)-3-(N-(3,4-dichlorophenyl)sulfamoyl)-4-methylbenzamide]
T. brucei cell growth (Trypanosoma brucei): abolished parasite proliferation | inhibition of ssDNA binding (MST) (HsRPA1 DBD-AB [1]): no inhibitory effect | inhibition of ssDNA binding (MST) (HsRPA complex [2]): no inhibitory effect | inhibition of ssDNA binding (EMSA) (TbRPA1 DBD-AB): inhibited by JC-229 in a dose-dependent manner | inhibition of ssDNA binding (EMSA) (HsRPA1 DBD-AB [3]): did not inhibit | inhibition of ssDNA binding (EMSA) (TbRPA complex): inhibited | inhibition of ssDNA binding (EMSA) (HsRPA complex [4]): no effect | inhibition of ssDNA binding (EMSA and MST) (TcRPA1 DBD-AB): did not inhibit | inhibition of ssDNA binding (EMSA and MST) (LmexRPA1 DBD-AB): did not inhibit | inhibition of ssDNA binding (EMSA and MST) [5]: does not inhibit | inhibition of ssDNA binding (EMSA and MST) [6]: inhibited by JC-229 at high concentrations | new DNA synthesis (BrdU incorporation) (T. brucei cells [7]): completely blocked new DNA synthesis | TbRPA1 protein levels (T. brucei cells [8]): did not change | cell morphology / cell death by microscopy (T. brucei cells [9]): leads to cell death
